Some of these results come from one statement about several compounds together.
Test system: Plutella xylostella (Diamond back moth) ryanodine receptor, containing the G4946E resistance mutation
Assay: In vitro calcium fluorescence assay (Fluo-8 NW, FDSS) in human embryonic kidney cells expressing the ryanodine receptor
Assay type: cell-based
Conditions: REC50 = EC50 (compound)/ EC50 (cyantraniliprole), ratio of 1 or less = equally or more active than cyantraniliprole

| Compound | REC50 |
| --- | --- |
| NC(=O)c1nc(Cl)cc(Cl)c1NC(=O)c1cc(C(F)(F)F)nn1-c1ncccc1Cl [P.1, 4,6-dichloro-3-[[2-(3-chloro-2-pyridyl)-5-(trifluoromethyl)pyrazole-3-carbonyl]amino]pyridine-2-carboxamide] | ≤ 1 |
| CNC(=O)c1nc(Cl)cc(Cl)c1NC(=O)c1cc(OCC(F)(F)F)nn1-c1ncccc1Cl [4,6-dichloro-3-[[2-(3-chloro-2-pyridyl)-5-(2,2,2-trifluoroethoxy)pyrazole-3-carbonyl]amino]-N-methyl-pyridine-2-carboxamide] | 2.66 |
| COc1cc(C(=O)Nc2c(Cl)cc(Cl)nc2C(N)=O)n(-c2ncccc2Cl)n1 [P.4, 4,6-dichloro-3-[[2-(3-chloro-2-pyridyl)-5-methoxy-pyrazole-3-carbonyl]amino]pyridine-2-carboxamide] | ≤ 1 |
